The record followed here is the supplement of paper PMC12819154, “High-throughput peptide-centric local stability assay extends protein–ligand identification to membrane proteins, tissues and bacteria” (Nature Structural & Molecular Biology, 2025).

This is a selection; strong and weak results do not stand in their true shares. Most entries show no effect beyond the scatter of the controls.
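Also: lysate desalted by size exclusion to strip endogenous ATP, peptide intensities built from DIA-NN precursor signals, and peptides missing any value discarded before comparison.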

This assay has as its target T1, UniProt P0A9I3.
T1 sequence (whole entry): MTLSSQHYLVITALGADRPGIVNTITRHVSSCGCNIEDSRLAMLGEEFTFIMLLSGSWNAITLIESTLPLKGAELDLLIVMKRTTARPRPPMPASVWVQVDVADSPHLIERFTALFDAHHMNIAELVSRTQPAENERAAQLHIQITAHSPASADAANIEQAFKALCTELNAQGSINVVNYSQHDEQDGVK
Briefly: log2 fold change of tryptic peptide abundance, ligand vs vehicle (limited proteolysis) (log2 ratio); higher = more trypsin-susceptible (destabilized). Conditions: peptide sequence: TQPAENER; peptide start residue: 130; ligand concentration: 5 mM; sample: E. coli desalted lysate; replicate design: treated before aliquoting. The procedure: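 HT-PELSA: desalted E. coli K-12 BW25113 lysate (with 12 mM MgCl2) incubated with 5 mM ATP (pH 7) or water for 30 min at 25 C, then a 4 min trypsin pulse at 22 C. Peptides were quantified by DIA-MS (4 replicates). Value is the peptide log2 fold change (treated/control); negative = stabilized. Scale: negative = ligand-stabilized region.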
`Nc1ncnc2c1ncn2[C@@H]1O[C@H](COP(=O)(O)OP(=O)(O)OP(=O)(O)O)[C@@H](O)[C@H]1O` [adenosine 5'-triphosphate]: the log2 fold change is -0.285.
